Five substances from article doi:10.1101/2020.01.03.892703 can be followed below.

Protein sequences, listed by entry. Tags and fused reporters are not part of them.
UniProt Q64511: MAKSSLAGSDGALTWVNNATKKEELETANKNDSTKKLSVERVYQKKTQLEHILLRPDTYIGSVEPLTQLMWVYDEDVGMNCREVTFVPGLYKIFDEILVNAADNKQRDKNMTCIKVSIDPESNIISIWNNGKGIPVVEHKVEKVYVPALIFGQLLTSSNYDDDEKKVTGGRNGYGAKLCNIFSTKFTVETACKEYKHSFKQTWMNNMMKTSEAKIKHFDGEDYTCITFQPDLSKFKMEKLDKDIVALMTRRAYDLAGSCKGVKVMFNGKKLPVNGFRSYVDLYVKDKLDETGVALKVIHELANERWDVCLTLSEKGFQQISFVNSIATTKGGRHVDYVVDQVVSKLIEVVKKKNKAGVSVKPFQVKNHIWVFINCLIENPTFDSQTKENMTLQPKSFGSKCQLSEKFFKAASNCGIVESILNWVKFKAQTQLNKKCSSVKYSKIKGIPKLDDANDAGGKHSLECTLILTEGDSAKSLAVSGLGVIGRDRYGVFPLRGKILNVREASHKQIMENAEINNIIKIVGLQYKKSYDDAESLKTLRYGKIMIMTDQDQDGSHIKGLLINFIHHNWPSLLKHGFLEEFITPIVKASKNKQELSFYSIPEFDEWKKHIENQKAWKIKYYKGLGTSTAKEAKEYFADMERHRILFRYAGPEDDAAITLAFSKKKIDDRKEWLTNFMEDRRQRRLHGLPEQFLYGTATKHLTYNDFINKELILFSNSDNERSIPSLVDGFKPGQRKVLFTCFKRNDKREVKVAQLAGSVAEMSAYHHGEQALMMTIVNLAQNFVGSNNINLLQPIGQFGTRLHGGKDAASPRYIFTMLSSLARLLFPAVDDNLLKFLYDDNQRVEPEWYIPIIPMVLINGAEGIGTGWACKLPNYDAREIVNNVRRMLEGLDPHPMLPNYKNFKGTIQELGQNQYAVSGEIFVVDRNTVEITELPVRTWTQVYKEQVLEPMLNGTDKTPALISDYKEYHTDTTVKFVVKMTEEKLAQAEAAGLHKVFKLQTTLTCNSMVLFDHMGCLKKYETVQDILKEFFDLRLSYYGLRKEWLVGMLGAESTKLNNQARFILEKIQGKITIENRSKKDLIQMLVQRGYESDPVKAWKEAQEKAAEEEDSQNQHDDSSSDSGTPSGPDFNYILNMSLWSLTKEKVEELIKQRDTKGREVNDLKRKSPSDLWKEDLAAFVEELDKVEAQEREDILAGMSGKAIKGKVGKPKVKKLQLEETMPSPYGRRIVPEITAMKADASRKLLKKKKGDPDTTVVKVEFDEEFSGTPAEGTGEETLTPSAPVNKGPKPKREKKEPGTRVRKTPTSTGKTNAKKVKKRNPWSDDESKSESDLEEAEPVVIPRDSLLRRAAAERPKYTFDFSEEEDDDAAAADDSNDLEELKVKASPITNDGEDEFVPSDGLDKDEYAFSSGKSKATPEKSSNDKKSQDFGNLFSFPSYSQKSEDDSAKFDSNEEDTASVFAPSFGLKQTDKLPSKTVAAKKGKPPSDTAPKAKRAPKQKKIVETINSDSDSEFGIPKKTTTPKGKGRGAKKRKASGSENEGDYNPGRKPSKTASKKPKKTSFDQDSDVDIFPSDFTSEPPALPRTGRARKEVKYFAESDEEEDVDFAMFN
UniProt Q8K0H5: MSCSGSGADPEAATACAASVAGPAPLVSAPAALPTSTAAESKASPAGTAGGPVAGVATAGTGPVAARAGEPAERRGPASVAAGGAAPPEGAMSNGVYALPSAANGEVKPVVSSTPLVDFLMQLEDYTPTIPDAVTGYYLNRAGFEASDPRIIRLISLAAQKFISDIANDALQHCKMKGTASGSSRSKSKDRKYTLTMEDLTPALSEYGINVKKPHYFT
UniProt E9QAP7: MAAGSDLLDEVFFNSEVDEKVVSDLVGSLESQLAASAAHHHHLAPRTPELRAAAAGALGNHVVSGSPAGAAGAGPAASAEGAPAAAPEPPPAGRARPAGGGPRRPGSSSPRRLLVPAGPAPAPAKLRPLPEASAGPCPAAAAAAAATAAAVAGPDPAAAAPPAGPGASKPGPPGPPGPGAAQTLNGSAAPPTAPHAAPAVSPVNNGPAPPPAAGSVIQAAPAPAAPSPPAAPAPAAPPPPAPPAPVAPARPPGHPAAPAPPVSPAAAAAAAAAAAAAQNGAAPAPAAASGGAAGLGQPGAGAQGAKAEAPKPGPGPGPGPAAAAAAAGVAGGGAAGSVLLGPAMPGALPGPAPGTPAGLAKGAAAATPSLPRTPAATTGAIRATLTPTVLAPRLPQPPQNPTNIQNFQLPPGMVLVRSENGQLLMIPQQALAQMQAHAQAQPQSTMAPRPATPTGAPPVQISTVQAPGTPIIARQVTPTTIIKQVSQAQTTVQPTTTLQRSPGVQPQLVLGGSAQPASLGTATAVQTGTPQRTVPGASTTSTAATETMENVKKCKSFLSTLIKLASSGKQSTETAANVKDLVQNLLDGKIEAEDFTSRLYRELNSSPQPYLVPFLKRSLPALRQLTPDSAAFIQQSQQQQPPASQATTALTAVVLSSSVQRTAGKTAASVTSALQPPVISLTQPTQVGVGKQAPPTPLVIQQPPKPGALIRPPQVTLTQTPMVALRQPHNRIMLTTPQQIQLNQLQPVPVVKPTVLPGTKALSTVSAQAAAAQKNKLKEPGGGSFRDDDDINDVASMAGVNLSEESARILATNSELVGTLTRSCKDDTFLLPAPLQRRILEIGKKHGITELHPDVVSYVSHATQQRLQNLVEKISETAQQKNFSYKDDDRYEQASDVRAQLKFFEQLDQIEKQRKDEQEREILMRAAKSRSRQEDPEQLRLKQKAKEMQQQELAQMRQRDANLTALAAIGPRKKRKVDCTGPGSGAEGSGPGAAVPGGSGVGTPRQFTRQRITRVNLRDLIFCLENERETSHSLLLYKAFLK
UniProt Q9CW03: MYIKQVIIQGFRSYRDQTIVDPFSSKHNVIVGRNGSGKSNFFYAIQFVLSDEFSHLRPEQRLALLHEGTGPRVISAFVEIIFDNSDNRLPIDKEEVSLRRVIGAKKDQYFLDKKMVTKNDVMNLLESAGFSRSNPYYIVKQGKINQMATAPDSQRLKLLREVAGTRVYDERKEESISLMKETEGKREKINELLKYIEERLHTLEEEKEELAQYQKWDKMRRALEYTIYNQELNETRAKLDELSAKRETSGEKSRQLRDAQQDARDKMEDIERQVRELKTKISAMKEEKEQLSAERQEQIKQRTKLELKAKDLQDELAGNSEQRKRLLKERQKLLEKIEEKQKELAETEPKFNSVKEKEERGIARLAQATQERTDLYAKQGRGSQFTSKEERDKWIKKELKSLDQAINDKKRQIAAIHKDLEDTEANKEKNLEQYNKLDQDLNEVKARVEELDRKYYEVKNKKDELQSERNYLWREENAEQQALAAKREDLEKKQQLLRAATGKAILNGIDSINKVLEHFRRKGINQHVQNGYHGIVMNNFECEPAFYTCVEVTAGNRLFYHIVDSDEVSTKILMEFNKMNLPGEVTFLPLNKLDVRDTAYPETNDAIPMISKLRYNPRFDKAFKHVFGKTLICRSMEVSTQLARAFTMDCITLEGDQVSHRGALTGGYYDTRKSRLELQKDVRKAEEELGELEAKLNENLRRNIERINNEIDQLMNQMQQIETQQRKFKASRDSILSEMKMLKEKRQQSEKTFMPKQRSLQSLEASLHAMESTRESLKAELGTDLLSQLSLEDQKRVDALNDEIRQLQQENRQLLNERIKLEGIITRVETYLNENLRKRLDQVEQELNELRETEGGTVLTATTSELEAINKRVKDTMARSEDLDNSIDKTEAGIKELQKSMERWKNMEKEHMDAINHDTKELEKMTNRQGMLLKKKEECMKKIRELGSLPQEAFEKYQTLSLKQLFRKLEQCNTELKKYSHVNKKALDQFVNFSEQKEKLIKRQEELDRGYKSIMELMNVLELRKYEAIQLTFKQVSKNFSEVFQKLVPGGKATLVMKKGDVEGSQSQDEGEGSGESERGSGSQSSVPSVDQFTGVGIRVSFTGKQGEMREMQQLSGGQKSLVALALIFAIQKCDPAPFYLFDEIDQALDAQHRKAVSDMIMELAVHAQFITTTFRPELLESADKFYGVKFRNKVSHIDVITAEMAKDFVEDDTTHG
UniProt Q62311: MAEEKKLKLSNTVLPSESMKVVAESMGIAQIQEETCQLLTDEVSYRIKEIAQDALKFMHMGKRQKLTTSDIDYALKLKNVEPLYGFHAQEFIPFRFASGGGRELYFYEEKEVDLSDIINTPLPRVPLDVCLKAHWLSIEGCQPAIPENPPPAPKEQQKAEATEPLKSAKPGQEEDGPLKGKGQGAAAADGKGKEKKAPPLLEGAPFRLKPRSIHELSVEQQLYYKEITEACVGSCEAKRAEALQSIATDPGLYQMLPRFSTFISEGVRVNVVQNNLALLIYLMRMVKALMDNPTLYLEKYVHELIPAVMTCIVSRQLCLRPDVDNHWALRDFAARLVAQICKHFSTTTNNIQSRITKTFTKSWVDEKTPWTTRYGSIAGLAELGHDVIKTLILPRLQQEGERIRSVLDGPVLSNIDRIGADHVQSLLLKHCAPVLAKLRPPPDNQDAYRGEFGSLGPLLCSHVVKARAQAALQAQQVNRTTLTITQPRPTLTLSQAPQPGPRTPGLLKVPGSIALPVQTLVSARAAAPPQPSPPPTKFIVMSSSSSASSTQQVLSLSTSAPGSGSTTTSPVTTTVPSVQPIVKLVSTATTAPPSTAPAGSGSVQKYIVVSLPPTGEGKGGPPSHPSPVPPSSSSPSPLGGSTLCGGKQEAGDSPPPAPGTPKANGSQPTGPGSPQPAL

These are yes or no findings as the source states them, for the method shown. Binding seen in cells or lysates may run through a third protein. Some binding calls cover weakened binding; strength is not graded here. For part of these data: Tags and fused reporters may be left off the sequences shown.

In assay [1] the target is T1, biotin-tagged XPF (mouse (endogenous knock-in in MEFs)) (UniProt Q9QZD4).
T1 sequence (chain, biotin on the 15 aa tag (by the BirA ligase in vivo)): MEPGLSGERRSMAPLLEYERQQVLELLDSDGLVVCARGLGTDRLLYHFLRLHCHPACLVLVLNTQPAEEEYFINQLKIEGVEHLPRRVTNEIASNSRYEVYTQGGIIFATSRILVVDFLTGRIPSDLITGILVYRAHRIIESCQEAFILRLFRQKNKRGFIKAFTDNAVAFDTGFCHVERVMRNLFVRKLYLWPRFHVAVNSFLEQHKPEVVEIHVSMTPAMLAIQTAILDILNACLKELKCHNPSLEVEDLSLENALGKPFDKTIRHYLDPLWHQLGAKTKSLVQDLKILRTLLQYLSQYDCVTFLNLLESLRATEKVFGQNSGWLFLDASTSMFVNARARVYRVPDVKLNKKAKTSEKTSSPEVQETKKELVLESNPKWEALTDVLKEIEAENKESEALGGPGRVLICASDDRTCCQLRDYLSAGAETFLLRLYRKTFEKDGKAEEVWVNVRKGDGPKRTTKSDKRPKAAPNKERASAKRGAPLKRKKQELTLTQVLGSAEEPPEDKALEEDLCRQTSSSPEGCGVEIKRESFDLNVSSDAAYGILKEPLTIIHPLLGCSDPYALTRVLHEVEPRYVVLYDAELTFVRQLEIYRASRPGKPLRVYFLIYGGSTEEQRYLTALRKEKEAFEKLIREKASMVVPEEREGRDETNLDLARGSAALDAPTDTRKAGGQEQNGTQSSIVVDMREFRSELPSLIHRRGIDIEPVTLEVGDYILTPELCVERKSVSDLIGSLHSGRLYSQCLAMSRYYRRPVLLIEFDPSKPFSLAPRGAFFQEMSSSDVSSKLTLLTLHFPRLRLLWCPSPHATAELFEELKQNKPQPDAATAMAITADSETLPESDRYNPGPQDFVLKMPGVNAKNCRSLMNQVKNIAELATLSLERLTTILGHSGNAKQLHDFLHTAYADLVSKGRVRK
As to the kind of experiment: pull-down.

For assay [2], the target named is T2, ERCC1 (mouse (endogenous in MEFs)) (UniProt P07903).
T2 sequence: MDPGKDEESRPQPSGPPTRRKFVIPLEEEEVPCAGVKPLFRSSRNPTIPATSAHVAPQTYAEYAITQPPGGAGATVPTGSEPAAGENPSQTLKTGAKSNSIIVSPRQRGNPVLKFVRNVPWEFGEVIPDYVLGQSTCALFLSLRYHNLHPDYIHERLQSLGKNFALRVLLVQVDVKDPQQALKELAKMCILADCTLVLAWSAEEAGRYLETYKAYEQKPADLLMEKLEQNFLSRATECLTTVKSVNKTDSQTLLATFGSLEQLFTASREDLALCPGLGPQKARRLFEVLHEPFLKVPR
Description: co-IP.

The target in assay [3] is T3, CCCTC-binding factor (mouse (endogenous in MEFs)) (UniProt Q61164).
T3 sequence: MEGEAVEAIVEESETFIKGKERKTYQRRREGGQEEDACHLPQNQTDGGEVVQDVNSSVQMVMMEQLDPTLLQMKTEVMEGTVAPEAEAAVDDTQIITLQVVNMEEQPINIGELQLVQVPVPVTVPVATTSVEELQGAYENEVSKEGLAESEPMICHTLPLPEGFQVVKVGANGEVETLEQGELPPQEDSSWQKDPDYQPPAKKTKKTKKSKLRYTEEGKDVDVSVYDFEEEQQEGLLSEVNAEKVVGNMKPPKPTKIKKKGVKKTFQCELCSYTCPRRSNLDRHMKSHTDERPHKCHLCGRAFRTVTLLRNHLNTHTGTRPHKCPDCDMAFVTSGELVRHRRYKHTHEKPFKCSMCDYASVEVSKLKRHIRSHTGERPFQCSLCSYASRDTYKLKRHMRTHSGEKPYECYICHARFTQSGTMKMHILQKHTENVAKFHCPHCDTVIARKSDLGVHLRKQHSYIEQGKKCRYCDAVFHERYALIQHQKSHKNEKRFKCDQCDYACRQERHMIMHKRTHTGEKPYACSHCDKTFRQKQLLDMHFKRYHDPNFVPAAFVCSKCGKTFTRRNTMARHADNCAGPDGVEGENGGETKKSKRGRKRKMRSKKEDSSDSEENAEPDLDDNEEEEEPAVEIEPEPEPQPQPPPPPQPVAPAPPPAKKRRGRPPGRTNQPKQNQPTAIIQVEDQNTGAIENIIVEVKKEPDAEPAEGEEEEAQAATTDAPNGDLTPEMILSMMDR
As to the kind of experiment: co-IP.

In assay [4] the target is Topoisomerase IIβ (mouse (endogenous in MEFs)) (UniProt Q64511). As to the kind of experiment: co-IP.

In the case of “Topoisomerase IIβ (from UniProt Q64511 1-1612)”, the binding entry in assay [1], in assay [2] and in assay [3] was “binds” in each case.

For TAF10 (from UniProt Q8K0H5 1-218), the binding result in assay [1] is listed as “binds”.

In the case of TAF4 (from UniProt E9QAP7 1-1042), in assay [1], the binding entry is listed as “binds”.

As for SMC3 (from UniProt Q9CW03 1-1217), the binding result in assay [1], in assay [2] and in assay [4] was “binds” throughout.

TAF6 (from UniProt Q62311 1-678): the binding result in assay [1] was “binds”.
